Source: patent US20230133118A1, “COMPOSITIONS AND METHODS FOR TREATING CANCER” (Adagene AG, priority 2020, published 2023)
These are yes or no findings as the source states them, for the method shown. Some entries that bind do so weakly or less than the wild type.

Amino acid sequences for entries named in this document (tags omitted). A change or cut given only in a name is not applied to a line headed by its entry. Residues count along the entry.
UniProt Q07011: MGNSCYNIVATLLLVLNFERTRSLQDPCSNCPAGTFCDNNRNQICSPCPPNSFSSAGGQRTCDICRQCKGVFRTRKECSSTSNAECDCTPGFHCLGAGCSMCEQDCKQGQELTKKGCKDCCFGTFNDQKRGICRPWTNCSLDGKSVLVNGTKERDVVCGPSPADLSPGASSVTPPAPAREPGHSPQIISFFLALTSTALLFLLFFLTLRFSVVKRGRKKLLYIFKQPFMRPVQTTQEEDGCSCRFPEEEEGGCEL
UniProt A9YYE7, residues 24-254: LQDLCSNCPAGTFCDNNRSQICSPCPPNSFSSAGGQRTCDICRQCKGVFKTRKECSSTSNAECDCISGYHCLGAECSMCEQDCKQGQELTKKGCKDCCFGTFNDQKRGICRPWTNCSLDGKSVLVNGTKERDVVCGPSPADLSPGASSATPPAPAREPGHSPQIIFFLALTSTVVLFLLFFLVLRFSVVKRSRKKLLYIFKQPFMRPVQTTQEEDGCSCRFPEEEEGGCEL

Assays:
[1] = biological target: human CD137 on cells (human) (UniProt Q07011); test: binding to activated T cells; method not described
[2] = biological target: human CD137 on cells (human) (UniProt Q07011); test: binding to activated human T cells (stronger to CD8+ than to CD4+); method not described
[3] = biological target: cynomolgus monkey CD137 (cynomolgus monkey) (UniProt A9YYE7); test: binding to activated cynomolgus monkey T cells (stronger to CD8+ than to CD4+); method not described

binding [1]: binds
binding [2]: binds
binding [3]: binds
B1: ADG106 (antibody, human IgG4 S228P, kappa, V domains shown)
VH: EVQLVESGGGLVQPGGSLRLSCAASGFSLSTGGVGVGWIRQAPGKGLEWLALIDWADDKYYSPSLKSRLTISRDNSKNTLYLQLNSLRAEDTAVYYCARGGSDTVIGDWFAYWGQGTLVTVSS
VL: DIQLTQSPSSLSASVGDRVTITCRASQSIGSYLAWYQQKPGKAPKLLIYDASNLETGVPSRFSGSGSGTDFTLTISSLQPEDFATYYCQQGYYLWTFGQGTKVEIKR
